Data as given in PubChem BioAssay AID248 (DTP/NCI, 2004).
The list does not hold the whole screen: it is rich in T/C values a quarter to a half above the control, in often repeated tests (any T/C) and in doses without a T/C. Further doses and runs are listed elsewhere. T/C: endpoint of the treated group in % of that of the vehicle group. Some doses have a count of surviving animals in place of a T/C: the source files T/C as zero there, which appears to mark a toxic dose or a test without result, not a measured value. Some doses without a T/C left all or most animals alive at the check, yet need not have been tolerated: the source hardly ever lists a survival T/C far under the control, and the zero likely stands for such cases as well. Counts of survivors are from the toxicity check (mostly the fifth day) where no day follows; animals may have died later. Schedule codes are those of the source, read here as Q, the interval in days (D) or hours (H), X, the number of doses. Some schedule codes hold Z or #, which are not explained here. For survival time, the PubChem record calls one and a half times the control and up active, and a quarter to a half above the control has no call in these data; cut-offs in other NCI protocols can differ.

Test system: L1210 leukemia ip in BDF1 mice, survival T/C
Experiment: NCI In Vivo Anticancer Drug Screen. Data for tumor model L1210 Leukemia (intraperitoneal) in B6D2F1 (BDF1) mice
Conditions: T/C endpoint: mean survival time, higher T/C = longer survival
[1] = dose: 100.0 mg/kg/injection, schedule: Q01DX009 (ip), vehicle: Klucel (hydroxypropylcellulose) (HPC)
[2] = dose: 200.0 mg/kg/injection, schedule: Q01DX009 (ip), vehicle: Klucel (hydroxypropylcellulose) (HPC)
[3] = dose: 400.0 mg/kg/injection, schedule: Q01DX009 (ip), vehicle: Klucel (hydroxypropylcellulose) (HPC)
[4] = dose: 100.0 mg/kg/injection, schedule: Q01DX001 (ip), vehicle: saline with Tween-80
[5] = dose: 200.0 mg/kg/injection, schedule: Q01DX001 (ip), vehicle: saline with Tween-80
[6] = dose: 400.0 mg/kg/injection, schedule: Q01DX001 (ip), vehicle: saline with Tween-80
[7] = dose: 400.0 mg/kg/injection, schedule: Q04DX003 (ip), vehicle: acetone
[8] = dose: 200.0 mg/kg/injection, schedule: Q01DX009 (ip), vehicle: saline with Tween-80
[9] = dose: 400.0 mg/kg/injection, schedule: Q01DX009 (ip), vehicle: saline with Tween-80
[10] = dose: 100.0 mg/kg/injection, schedule: Q04DX002 (ip), vehicle: Klucel (hydroxypropylcellulose) (HPC)
[11] = dose: 200.0 mg/kg/injection, schedule: Q04DX002 (ip), vehicle: Klucel (hydroxypropylcellulose) (HPC)
[12] = dose: 400.0 mg/kg/injection, schedule: Q04DX002 (ip), vehicle: Klucel (hydroxypropylcellulose) (HPC)
[13] = dose: 400.0 mg/kg/injection, schedule: Q01DX009 (ip), vehicle: saline
[14] = dose: 400.0 mg/kg/injection, schedule: Q04DX003 (ip), vehicle: Klucel (hydroxypropylcellulose) (HPC)

CN(C)C(N)=Nc1ccc(Cl)cc1 was tested, and the survivor count [1] was 0 of 6, the survivor count [2] was 0 of 6 and the survivor count [3] was 0 of 6.
In the case of O=C(c1ccccc1)c1cc(Cl)ccc1NC(=O)C(Cl)(Cl)Cl, the survivor count [4] is reported as 6 of 6, the survivor count [5] is reported as 6 of 6 and the survivor count [6] is reported as 6 of 6.
In the case of NCCCCCCN (tested in a mixture with another compound), the survivor count (dose: 12.0 mg/kg/injection, schedule: Q01DX009 (ip), vehicle: acid diluted with saline) is reported as 1 of 6, the survivor count (dose: 100.0 mg/kg/injection, schedule: Q04DX003 (ip), vehicle: acid diluted with saline) is reported as 0 of 6 and the survivor count (dose: 200.0 mg/kg/injection, schedule: Q04DX003 (ip), vehicle: acid diluted with saline) is reported as 0 of 6. The survivor count (dose: 400.0 mg/kg/injection, schedule: Q04DX003 (ip), vehicle: acid diluted with saline) was 0 of 6.
In the case of Cc1c(NC(=O)CCl)c(=O)n(-c2ccccc2)n1C, the survivor count [3] is reported as 3 of 6.
With Clc1nc2cc(Cl)c(Cl)cc2[nH]1 the survivor count [7] was 2 of 6.
In the case of O=C(CNCc1ccccc1)Oc1c(Cl)c(Cl)c(Cl)c(Cl)c1Cl, the survivor count (dose: 400.0 mg/kg/injection, schedule: Q04DX003 (ip), vehicle: other) is reported as 0 of 6.
In the case of Cc1nc(N(C)C)c2cnn(-c3ccccc3)c2n1, the survivor count [8] is reported as 1 of 6 and the survivor count (dose: 400.0 mg/kg/injection, schedule: Q01DX001 (ip), vehicle: acetone) is reported as 0 of 6.
In the case of c1ccc(Pc2ccccc2)cc1, the survivor count [9] is reported as 0 of 6.
With CC(C)(C)Sc1ccncc1 the survivor count [9] was 0 of 6.
In the case of N[P+](c1ccccc1)(c1ccccc1)c1ccccc1, the survivor count (dose: 50.0 mg/kg/injection, schedule: Q04DX002 (ip), vehicle: Klucel (hydroxypropylcellulose) (HPC)) is reported as 0 of 3, the survivor count [10] is reported as 0 of 3 and the survivor count [11] is reported as 0 of 3. For the same compound, the survivor count [12] was 0 of 3.
Clc1ccc(/C=C2\c3ccccc3-c3nc4ccccc4nc32)cc1 was tested, and the survivor count (dose: 300.0 mg/kg/injection, schedule: Q04DX003 (ip), vehicle: saline) was 6 of 6.
With CNC(=O)Oc1ccccc1C(N)=O the survivor count [2] was 2 of 6 and the survivor count [3] was 0 of 6.
For CS(=O)(=O)Oc1c(Cl)cc(S(=O)(=O)F)cc1Cl, the survivor count [3] was 4 of 6.
In the case of Nc1nc2ccc(CNc3ccc(C(=O)NC(CCC(=O)O)C(=O)O)cc3)nc2c(=O)[nH]1 (stereo unspecified), the T/C [4] is reported as 133 % of control, the survivor count [5] is reported as 6 of 6 and the survivor count [6] is reported as 6 of 6.
With C[Se]c1ncnc2c1c(C#N)cn2C1OC(CO)C(O)C1O (stereo unspecified) the T/C (dose: 25.0 mg/kg/injection, schedule: Q01DX005 (ip), vehicle: saline) was 129 % of control, the survivor count (dose: 100.0 mg/kg/injection, schedule: Q01DX005 (ip), vehicle: saline) was 0 of 6 and the survivor count (dose: 200.0 mg/kg/injection, schedule: Q01DX005 (ip), vehicle: saline) was 0 of 6.
In the case of CSc1nc(N(C)C)c2[nH]c(C)nc2n1, the survivor count (dose: 400.0 mg/kg/injection, schedule: Q01DX001 (ip), vehicle: saline) is reported as 2 of 6.
CCOP(=O)(NC1C2CCC(C2)C1C)OCC (stereo unspecified) was tested, and the survivor count (dose: 100.0 mg/kg/injection, schedule: Q01DX001 (ip), vehicle: saline) was 0 of 6.
With CCCNC(=O)c1ccc(NC(=O)Nc2ccc(C3=NCCN3)cc2)cc1NC(=O)Nc1ccc(C2=NCCN2)cc1 the T/C (dose: 300.0 mg/kg/injection, schedule: Q01DX Z (ip), vehicle: carboxymethylcellulose (CMC)) was 142 % of control and the survivor count (dose: 500.0 mg/kg/injection, schedule: Q01DX Z (ip), vehicle: carboxymethylcellulose (CMC)) was 0 of 6.
For F[C](F)(F)[Hg][c]1ccccc1, the survivor count (dose: 25.0 mg/kg/injection, schedule: Q04DX002 (ip), vehicle: saline with Tween-80) was 1 of 3, the survivor count (dose: 50.0 mg/kg/injection, schedule: Q04DX002 (ip), vehicle: saline with Tween-80) was 0 of 3 and the survivor count (dose: 100.0 mg/kg/injection, schedule: Q04DX002 (ip), vehicle: saline with Tween-80) was 0 of 3.
O=S(=O)(/C=C(/Cl)c1ccccc1)c1ccccc1 was tested, and the survivor count (dose: 100.0 mg/kg/injection, schedule: Q01DX009 (ip), vehicle: acetone) was 6 of 6, the survivor count (dose: 200.0 mg/kg/injection, schedule: Q04DX003 (ip), vehicle: acetone) was 1 of 6 and the survivor count [7] was 0 of 6.
In the case of CN(C)C(=O)Nc1ccc(Cl)cc1, the survivor count [13] is reported as 3 of 6.
With CCCCCCCC[n+]1cccc(C#N)c1 the survivor count (dose: 300.0 mg/kg/injection, schedule: Q01DX001 (ip), vehicle: saline) was 0 of 6.
With CCCCN1C(=O)c2cccnc2C1=O the survivor count (dose: 200.0 mg/kg/injection, schedule: Q04DX003 (ip), vehicle: saline with Tween-80) was 6 of 6.
Cc1ccccc1N=Cc1ccccc1O.[Co] was tested, and the survivor count (dose: 400.0 mg/kg/injection, schedule: Q01DX001 (ip), vehicle: other) was 1 of 6.
In the case of O=c1[nH]c(=O)c2ccccc2o1, the survivor count [8] is reported as 2 of 6 and the survivor count [9] is reported as 0 of 6.
For CCCCC[P+](c1ccccc1)(c1ccccc1)c1ccccc1, the survivor count [10] was 0 of 3, the survivor count [11] was 0 of 3 and the survivor count [12] was 0 of 3.
In the case of Cc1cc(C(=O)NNC(C)Cc2ccccc2)no1 (stereo unspecified), the survivor count (dose: 75.0 mg/kg/injection, schedule: Q01DX009 (ip), vehicle: Klucel (hydroxypropylcellulose) (HPC)) is reported as 5 of 6.
With Cc1cn(CC(C)C)c(=O)n(-c2ccccc2)c1=O the survivor count (dose: 200.0 mg/kg/injection, schedule: Q01DX Z (ip), vehicle: methylcellulose (MC)) was 6 of 6.
In the case of Clc1ccc2c(Cl)ccnc2c1, the survivor count (dose: 400.0 mg/kg/injection, schedule: Q04DX002 (ip), vehicle: gum acacia) is reported as 0 of 3.
With Cc1ccccc1/C=N/Nc1nnc(N/N=C/c2ccccc2C)c2ccccc12 the survivor count (dose: 50.0 mg/kg/injection, schedule: Q01DX001 (ip), vehicle: carboxymethylcellulose (CMC)) was 2 of 4.
With O=C(NS(=O)(=O)c1ccc(Cl)cc1)c1cccc2ccccc12 the survivor count [8] was 6 of 6 and the survivor count [9] was 0 of 6.
Clc1ccc(Cl)c(/C=C/c2ccc(Cl)c(Cl)c2)c1 was tested, and the survivor count (dose: 12.5 mg/kg/injection, schedule: Q01DX009 (ip), vehicle: Klucel (hydroxypropylcellulose) (HPC)) was 2 of 6, the survivor count (dose: 25.0 mg/kg/injection, schedule: Q01DX009 (ip), vehicle: Klucel (hydroxypropylcellulose) (HPC)) was 0 of 6 and the survivor count (dose: 50.0 mg/kg/injection, schedule: Q01DX009 (ip), vehicle: Klucel (hydroxypropylcellulose) (HPC)) was 0 of 6. The survivor count [1] was 0 of 6, the survivor count (dose: 200.0 mg/kg/injection, schedule: Q04DX003 (ip), vehicle: Klucel (hydroxypropylcellulose) (HPC)) was 6 of 6 and the survivor count [14] was 0 of 6.
In the case of N=C(N)SCc1c2ccccc2cc2ccccc12, the T/C (dose: 200.0 mg/kg/injection, schedule: Q01DX009 (ip), vehicle: saline) is reported as 125 % of control, the survivor count (dose: 300.0 mg/kg/injection, schedule: Q01DX009 (ip), vehicle: saline sonified) is reported as 5 of 6 and the survivor count [13] is reported as 0 of 6.
CC(=O)/C=C/c1ccco1 was tested, and the survivor count (dose: 100.0 mg/kg/injection, schedule: Q04DX003 (ip), vehicle: DMSO) was 3 of 6, the survivor count (dose: 200.0 mg/kg/injection, schedule: Q04DX003 (ip), vehicle: DMSO) was 0 of 6 and the survivor count (dose: 400.0 mg/kg/injection, schedule: Q04DX003 (ip), vehicle: DMSO) was 0 of 6.
In the case of CS(=O)(=O)OCCN(CCOS(C)(=O)=O)c1ccc(C=Nc2ccc3ccccc3c2)c(Cl)c1, the T/C [14] is reported as 130 % of control.
In the case of Cc1ccc(OC(=O)Nc2ccc(C(=O)O)c(O)c2)cc1, the survivor count [13] is reported as 1 of 6.
With CC(=O)N(NC(=O)c1cccnc1)C(C)=O the survivor count (dose: 500.0 mg/kg/injection, schedule: Q01DX Z (oral), vehicle: carboxymethylcellulose (CMC)) was 0 of 6.
